Measurements as given in the supplement of paper PMC10849652.
The list shows a part of the results.

By UniProt entry, the sequences of proteins in these tests, tags left out. Where a name states a change or a piece, a line headed by the entry shows the natural chain unless it says otherwise.
UniProt P25054, whole entry, looked up: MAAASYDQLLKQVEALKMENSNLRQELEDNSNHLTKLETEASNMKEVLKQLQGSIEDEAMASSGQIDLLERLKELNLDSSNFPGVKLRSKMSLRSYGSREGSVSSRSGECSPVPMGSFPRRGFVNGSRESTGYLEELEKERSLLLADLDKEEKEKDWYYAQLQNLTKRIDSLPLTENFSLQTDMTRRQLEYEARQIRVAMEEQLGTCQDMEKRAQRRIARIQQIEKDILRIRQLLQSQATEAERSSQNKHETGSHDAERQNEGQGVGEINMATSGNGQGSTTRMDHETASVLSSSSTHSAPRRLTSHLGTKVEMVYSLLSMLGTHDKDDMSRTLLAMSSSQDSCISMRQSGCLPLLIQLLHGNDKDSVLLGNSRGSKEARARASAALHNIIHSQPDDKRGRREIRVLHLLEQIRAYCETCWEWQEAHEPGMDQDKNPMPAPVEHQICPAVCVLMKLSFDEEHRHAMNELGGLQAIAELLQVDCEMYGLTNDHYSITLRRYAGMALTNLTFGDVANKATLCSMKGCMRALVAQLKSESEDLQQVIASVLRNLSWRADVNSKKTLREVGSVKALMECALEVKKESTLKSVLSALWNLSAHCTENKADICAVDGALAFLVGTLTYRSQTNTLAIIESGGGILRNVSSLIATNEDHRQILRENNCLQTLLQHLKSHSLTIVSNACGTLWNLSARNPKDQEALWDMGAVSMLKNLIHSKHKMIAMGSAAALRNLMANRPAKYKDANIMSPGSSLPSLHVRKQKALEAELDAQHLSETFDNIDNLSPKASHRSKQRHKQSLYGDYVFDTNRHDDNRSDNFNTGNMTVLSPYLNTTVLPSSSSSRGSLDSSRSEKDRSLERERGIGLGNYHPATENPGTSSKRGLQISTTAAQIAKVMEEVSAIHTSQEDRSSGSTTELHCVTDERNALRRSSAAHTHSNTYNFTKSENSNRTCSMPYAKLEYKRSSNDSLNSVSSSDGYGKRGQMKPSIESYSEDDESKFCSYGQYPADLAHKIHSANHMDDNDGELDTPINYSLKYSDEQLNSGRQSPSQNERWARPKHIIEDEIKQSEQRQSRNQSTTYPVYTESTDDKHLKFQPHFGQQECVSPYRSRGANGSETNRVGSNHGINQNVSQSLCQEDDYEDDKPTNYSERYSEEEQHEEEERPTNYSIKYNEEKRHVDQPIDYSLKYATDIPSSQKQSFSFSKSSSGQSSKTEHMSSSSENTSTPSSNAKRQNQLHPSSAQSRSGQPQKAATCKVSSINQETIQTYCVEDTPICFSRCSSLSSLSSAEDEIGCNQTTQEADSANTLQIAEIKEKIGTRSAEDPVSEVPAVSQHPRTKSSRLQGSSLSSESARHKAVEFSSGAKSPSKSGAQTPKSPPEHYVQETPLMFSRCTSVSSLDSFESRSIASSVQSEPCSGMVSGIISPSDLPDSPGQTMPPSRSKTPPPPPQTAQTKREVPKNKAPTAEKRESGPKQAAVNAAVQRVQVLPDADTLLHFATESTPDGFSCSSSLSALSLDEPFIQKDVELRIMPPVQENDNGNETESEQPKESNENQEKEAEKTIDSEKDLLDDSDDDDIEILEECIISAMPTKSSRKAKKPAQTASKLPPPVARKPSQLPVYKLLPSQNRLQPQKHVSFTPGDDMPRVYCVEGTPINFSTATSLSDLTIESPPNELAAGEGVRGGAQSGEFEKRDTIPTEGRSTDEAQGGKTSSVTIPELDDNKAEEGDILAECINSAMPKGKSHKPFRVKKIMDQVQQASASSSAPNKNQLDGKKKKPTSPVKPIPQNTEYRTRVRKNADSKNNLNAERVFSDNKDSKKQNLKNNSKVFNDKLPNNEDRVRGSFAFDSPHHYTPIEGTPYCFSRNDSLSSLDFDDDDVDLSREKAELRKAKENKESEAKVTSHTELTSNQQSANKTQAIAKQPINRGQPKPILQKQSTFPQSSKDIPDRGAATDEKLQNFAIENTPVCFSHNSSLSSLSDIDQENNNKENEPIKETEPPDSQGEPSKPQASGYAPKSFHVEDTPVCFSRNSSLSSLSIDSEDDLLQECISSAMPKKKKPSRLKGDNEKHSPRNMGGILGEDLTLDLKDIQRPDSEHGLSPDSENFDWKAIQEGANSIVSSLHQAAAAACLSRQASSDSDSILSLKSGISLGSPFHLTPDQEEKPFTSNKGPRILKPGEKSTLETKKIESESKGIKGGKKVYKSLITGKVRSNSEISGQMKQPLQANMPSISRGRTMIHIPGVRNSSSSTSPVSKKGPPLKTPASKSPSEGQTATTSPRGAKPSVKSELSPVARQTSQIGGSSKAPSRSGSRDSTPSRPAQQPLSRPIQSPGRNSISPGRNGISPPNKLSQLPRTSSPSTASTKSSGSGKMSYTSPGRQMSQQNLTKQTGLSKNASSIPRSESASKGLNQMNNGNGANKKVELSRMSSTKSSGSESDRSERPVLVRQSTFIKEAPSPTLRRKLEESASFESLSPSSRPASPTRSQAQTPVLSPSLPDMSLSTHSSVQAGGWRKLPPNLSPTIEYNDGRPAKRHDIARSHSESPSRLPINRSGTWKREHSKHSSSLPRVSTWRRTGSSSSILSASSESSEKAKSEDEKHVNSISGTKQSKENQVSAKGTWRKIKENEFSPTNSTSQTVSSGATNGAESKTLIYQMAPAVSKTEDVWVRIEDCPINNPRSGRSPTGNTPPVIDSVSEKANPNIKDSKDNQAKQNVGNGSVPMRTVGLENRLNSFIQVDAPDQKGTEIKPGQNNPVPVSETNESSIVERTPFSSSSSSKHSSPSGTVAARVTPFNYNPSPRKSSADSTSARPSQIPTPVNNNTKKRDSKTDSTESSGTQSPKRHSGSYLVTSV
UniProt A6QL64: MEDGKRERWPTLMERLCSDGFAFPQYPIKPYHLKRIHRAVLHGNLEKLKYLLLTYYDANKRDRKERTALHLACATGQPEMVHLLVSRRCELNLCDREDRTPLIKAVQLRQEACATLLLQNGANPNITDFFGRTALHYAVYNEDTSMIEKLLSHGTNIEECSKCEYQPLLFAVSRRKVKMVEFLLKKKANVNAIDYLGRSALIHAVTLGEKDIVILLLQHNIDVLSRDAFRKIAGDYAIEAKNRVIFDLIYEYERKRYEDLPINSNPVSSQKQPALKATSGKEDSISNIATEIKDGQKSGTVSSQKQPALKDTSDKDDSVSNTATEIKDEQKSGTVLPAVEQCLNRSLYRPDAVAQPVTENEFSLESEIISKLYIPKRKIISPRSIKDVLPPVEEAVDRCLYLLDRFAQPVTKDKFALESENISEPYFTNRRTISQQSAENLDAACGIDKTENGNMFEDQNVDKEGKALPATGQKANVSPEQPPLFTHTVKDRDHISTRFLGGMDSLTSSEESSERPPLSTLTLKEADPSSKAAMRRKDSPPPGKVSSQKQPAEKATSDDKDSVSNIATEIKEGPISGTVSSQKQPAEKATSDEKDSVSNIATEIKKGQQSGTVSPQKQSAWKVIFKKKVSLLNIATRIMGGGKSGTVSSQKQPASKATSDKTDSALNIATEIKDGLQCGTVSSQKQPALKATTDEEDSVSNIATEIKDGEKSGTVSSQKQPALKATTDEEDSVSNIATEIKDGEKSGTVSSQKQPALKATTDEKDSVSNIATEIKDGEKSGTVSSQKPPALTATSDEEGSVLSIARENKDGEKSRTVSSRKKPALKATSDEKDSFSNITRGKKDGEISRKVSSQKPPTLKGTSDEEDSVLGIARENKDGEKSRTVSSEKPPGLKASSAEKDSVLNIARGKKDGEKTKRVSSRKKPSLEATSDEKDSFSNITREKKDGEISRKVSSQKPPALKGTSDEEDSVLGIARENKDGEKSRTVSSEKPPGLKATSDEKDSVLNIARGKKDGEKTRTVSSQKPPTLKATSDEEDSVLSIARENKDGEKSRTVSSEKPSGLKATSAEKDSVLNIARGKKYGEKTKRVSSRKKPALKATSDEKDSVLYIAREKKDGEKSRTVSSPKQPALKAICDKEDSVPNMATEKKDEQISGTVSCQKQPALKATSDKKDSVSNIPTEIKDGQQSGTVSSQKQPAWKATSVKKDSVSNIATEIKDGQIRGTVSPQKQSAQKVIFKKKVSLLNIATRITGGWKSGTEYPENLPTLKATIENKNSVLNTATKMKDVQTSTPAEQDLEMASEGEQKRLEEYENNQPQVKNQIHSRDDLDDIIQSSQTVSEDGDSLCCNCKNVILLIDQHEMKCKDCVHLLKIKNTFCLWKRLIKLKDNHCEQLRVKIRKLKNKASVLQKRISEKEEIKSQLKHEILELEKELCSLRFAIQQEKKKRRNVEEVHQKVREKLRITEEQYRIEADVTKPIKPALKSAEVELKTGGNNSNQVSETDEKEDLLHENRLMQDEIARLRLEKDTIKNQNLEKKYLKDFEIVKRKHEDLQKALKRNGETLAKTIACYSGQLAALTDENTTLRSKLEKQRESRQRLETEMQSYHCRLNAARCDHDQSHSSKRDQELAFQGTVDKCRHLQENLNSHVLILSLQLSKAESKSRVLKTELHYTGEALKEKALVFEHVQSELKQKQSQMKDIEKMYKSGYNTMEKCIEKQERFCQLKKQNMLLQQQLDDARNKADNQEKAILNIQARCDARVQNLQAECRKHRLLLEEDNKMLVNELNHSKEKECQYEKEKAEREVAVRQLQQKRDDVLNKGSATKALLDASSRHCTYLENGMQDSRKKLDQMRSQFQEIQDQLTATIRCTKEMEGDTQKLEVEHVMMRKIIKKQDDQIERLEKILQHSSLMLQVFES
UniProt Q9NRY4: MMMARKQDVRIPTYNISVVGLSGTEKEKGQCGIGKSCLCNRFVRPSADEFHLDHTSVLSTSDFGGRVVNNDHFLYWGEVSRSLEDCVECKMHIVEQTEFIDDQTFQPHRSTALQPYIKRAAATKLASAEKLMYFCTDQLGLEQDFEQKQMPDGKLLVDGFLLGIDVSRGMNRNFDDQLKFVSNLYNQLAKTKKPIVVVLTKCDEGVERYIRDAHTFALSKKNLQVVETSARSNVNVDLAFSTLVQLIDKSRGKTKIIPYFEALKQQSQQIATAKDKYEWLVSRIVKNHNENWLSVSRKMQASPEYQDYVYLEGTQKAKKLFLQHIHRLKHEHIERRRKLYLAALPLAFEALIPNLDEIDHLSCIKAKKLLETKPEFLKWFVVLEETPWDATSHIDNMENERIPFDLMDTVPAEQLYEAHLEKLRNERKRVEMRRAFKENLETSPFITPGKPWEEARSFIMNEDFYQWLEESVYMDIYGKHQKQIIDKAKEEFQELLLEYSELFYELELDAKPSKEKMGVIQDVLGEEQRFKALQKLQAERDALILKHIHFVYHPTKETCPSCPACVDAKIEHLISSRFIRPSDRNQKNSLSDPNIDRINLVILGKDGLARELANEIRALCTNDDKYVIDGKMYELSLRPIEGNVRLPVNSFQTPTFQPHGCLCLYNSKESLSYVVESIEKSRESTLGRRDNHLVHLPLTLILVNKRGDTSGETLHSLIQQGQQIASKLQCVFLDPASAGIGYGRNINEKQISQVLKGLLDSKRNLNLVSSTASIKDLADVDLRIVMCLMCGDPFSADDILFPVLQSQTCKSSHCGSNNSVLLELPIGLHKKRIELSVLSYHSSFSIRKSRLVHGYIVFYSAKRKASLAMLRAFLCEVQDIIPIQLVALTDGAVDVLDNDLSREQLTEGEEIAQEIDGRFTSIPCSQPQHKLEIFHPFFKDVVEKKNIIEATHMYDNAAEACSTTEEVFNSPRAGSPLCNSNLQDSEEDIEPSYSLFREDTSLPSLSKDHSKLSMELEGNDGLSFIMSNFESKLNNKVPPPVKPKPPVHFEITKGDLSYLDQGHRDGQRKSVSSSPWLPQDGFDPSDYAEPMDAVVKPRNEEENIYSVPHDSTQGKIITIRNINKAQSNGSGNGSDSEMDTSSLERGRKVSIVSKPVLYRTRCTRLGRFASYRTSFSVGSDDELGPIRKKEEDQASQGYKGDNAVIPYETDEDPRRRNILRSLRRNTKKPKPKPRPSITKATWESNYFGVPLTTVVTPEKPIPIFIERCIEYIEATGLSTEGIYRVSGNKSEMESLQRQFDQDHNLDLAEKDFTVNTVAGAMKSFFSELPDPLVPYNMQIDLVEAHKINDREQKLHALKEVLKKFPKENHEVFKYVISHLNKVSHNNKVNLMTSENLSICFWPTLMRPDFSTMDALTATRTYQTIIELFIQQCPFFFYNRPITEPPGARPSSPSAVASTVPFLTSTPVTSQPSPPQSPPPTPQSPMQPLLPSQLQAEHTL

Compound: c1cc(OCCN2CCCCC2)cc(-c2n[nH]c3ccc(-c4nnc[nH]4)cc23)c1
Assay: log2 fold change, soluble protein after heating vs DMSO (PISA); higher = thermal stabilisation; K562 cells, 10 uM, 30 min; active = over 0.2 and 3.5 SD of the protein, either way, in both replicates (recomputed)
Method in brief: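 Aliquots of K562 cells (2×10^6 cells/mL) treated with 10 μM compound for 30 min were heated for 3 min over 48°C-58°C. After pooling and extraction in PBS with 0.5% NP-40 at 4°C, soluble protein from a 21,000xg, 90 min spin was quantified by TMTpro 16plex LC-MS/MS with channel sums equalised. Thermal stability is expressed against control samples, from duplicates, as a log2 fold change.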

log2 fold change, inactive:
APC (UniProt P25054) -0.137
APOL1 isoform 2 (UniProt O14791) 0.118
ARHGAP5 (UniProt Q13017) -0.213
APOBEC3F (UniProt Q8IUX4) -0.16
ANKRD36 (UniProt A6QL64) -0.026
AP4B1 (UniProt Q9Y6B7) -0.117
ARHGAP22 isoform 2 (UniProt Q7Z5H3) 0.033
ANKS1A (UniProt Q92625) -0.329
ARHGAP35 (UniProt Q9NRY4) 0.031
APP (UniProt P05067) -0.022
ARAP1 (UniProt Q96P48) -0.148
ANKH (UniProt Q9HCJ1) -0.386
ANKRD13C (UniProt Q8N6S4) -0.309
ANKRD52 (UniProt Q8NB46) -0.029
ANLN (UniProt Q9NQW6) -0.093
AP5M1 (UniProt Q9H0R1) -0.03
AP1B1 isoform 3 (UniProt Q10567) 0.137
ARHGAP25 isoform 4 (UniProt P42331) -0.049

No new results follow: an excerpt of the list.
log2 fold change, inactive:
ANLN (UniProt Q9NQW6) -0.093
AP5M1 (UniProt Q9H0R1) -0.03
